No constants are given. Whether binding was seen depends on the method and setting. Binding seen in cells or lysates may run through a third protein. A yes stands for co-enrichment or nearness to the bait. Other partners may have been found. No binding means not detected with the bait. Tags and fused reporters may be left off the sequences shown.
B1: MED26 (protein, UniProt Q7TN02 1-588)
chain: MTAAPASPQQMRDRLLQAIDSQSNIRNMVAVLEVISSLERYPITKEALEETRLGKLINDVRKKTKNEELAKRAKRLLRSWQKLIEPVHQNEVALRALAGAAGSANGGAHNCRPEMGVAGAPKSIHDLKNRNDIQRLPGQRLDRLGSRKRRGDQRDLGHPGPPHKVSKGSPDPLVPNASPLPTNGISGSPESLPSPLDGSGHLGPDGSRLEPSDNEKHSTKIPVNAVRPRPSSPGLGKPPVPCLQTKAAQLQQLDRADESPGPPYPRGSSRCSFSPRNSRHEGSFSRHRSSYIPKGQVSSPSPWPQPPDNTQVPSPLPLAQPPTPPVRRQELLPNAESPVHWPEQSEGHPRLTGPACRAGFSPDSSKADSDATSSGGSDSKKKKRYRPRDYTVNLDGQVAEAGVKPVRLKERKLTFDPMTRQIRPLTQKEPVRADSPVPTEQLPRTELEQQEVKASLQSPFEQTNWKELSRNEIIQSYLSRQSSLLSSSGAQTPGAHHFMAEYLKQEESSRQGARQPHVLLPLPTPTDLPGLTREVTQDDLDRIQAQQWPGVNGCEDTQGNWYDWTQCISLDPHGDDGRLNILPYVCLD

The chains behind the UniProt entries cited, without tags or fusion partners.
UniProt Q9WTX6: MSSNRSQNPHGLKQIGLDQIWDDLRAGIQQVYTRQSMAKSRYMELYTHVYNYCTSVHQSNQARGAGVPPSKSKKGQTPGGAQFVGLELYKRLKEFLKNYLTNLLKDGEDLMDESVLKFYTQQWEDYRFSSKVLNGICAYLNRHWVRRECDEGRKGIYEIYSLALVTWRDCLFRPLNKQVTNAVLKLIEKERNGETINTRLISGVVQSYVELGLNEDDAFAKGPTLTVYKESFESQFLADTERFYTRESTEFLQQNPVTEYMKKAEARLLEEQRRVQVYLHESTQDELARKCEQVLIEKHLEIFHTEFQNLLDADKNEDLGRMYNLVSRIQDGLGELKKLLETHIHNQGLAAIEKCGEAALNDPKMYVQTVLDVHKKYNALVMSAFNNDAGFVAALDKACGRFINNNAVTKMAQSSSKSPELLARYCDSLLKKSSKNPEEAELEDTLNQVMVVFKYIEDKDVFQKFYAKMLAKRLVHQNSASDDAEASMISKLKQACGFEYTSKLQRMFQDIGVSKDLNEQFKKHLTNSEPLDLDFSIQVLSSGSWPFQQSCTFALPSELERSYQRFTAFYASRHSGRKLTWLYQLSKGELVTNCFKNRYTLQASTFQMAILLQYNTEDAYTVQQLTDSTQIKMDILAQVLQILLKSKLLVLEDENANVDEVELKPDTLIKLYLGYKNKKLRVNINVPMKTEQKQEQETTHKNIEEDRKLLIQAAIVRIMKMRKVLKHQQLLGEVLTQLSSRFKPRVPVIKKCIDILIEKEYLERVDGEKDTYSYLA
UniProt P61290: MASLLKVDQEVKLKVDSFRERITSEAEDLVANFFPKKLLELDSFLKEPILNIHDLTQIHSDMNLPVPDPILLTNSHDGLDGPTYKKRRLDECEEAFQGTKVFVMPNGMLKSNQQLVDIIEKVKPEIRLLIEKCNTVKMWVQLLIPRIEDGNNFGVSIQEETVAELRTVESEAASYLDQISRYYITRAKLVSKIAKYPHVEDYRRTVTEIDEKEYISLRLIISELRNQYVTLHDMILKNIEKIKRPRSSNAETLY

The molecules below were run against T1, FS2-FBXL19 (epitope-tagged wild-type FBXL19, stable mouse ES cell line) (mouse) (UniProt Q6PB97) (assay: affinity purification with mass spectrometry; FS2-FBXL19 purified on StrepTactin resin from 10-15 mg ES cell nuclear extract; 75 U/mL benzonase; wash 20 mM Tris pH 8.0, 150 mM NaCl, 0.2% NP-40; empty vector control purification; two biological replicates).
T1 sequence: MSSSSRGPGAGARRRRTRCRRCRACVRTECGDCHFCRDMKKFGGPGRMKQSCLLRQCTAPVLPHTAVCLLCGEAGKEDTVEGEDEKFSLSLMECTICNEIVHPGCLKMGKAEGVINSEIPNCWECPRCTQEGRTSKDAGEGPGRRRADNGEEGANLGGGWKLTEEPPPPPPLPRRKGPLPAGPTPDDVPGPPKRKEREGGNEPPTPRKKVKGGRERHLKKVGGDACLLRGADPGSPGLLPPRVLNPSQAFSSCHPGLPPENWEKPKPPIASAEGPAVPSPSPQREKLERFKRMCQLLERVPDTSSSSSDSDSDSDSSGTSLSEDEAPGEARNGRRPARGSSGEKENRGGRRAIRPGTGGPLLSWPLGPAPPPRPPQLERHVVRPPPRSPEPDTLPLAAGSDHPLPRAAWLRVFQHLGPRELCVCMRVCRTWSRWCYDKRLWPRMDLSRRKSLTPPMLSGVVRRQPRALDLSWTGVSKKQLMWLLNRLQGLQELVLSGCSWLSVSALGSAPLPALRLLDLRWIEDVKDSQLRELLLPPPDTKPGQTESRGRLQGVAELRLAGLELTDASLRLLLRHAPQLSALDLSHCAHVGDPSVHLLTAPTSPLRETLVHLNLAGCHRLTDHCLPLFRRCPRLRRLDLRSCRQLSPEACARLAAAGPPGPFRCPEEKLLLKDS
For CUL1 (from UniProt Q9WTX6 1-776), the binding was “no binding”. With “nuclear proteasome activator PSME3 (from UniProt P61290 1-254)” the binding was “binds”. With B1 the binding was “no binding”.

— paper PMC5997449
